Laboratory results reported in PMC12884720, “Gabpα‐Pparγ Complex Determines Glycolytic Capacity and Lactic Acid Homeostasis in Brown Fat” (Advanced Science, 2025).
Results are given in words; binding and its absence hold for the method and conditions named. For some assays here: Binding seen in cells or lysates may run through a third protein. Some binding calls cover weakened binding; strength is not graded here. Tags and fused reporters may be left off the sequences shown. Blank lines part the entries; values can stand above or below the molecule they belong to.

Amino acid sequences for entries named in this document (tags omitted).
UniProt P37238: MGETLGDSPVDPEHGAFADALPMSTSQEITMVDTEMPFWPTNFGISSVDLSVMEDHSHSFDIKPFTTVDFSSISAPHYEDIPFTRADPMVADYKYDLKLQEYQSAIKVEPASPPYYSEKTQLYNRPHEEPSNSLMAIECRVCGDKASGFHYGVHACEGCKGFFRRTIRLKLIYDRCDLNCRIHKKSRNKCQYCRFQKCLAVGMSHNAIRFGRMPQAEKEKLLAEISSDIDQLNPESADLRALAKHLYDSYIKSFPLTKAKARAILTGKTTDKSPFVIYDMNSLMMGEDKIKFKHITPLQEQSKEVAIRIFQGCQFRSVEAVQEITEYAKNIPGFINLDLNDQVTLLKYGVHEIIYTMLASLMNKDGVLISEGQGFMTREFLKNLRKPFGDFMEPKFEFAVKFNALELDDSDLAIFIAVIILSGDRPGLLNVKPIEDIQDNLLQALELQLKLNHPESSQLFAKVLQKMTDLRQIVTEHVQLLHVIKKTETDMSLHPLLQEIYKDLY
UniProt A2A935: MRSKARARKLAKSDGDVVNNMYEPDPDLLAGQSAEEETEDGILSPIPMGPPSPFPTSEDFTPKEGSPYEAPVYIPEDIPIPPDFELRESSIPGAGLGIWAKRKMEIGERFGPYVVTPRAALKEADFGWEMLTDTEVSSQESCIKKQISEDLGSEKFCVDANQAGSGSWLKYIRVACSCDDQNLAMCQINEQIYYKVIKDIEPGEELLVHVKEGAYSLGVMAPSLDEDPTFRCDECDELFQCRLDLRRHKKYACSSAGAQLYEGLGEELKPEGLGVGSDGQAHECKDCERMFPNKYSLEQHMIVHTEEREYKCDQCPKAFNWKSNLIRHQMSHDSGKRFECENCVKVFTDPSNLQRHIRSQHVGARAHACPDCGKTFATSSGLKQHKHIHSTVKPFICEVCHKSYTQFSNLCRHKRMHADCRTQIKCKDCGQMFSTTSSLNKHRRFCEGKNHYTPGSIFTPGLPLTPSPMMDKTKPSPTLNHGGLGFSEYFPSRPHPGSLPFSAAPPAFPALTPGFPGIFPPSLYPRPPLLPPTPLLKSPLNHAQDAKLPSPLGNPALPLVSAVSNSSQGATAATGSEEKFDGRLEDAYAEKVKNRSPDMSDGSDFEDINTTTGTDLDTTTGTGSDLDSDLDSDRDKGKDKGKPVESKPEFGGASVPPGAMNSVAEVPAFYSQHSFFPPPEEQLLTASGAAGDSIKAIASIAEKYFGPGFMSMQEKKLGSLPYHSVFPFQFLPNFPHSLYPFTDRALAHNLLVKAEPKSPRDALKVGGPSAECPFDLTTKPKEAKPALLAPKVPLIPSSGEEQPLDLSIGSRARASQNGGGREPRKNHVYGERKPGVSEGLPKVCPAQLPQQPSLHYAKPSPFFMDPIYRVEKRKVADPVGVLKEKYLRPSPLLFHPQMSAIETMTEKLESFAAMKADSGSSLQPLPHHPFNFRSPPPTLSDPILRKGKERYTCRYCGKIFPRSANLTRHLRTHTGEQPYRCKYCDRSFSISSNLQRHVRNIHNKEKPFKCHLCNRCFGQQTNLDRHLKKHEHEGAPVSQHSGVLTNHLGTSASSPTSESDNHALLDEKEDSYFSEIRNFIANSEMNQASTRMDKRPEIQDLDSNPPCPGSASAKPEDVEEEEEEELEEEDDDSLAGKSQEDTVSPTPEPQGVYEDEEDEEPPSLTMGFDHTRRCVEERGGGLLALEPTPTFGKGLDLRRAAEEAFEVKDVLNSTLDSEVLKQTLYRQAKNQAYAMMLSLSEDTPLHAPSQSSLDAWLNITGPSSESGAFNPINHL

How the values were obtained:
His-Gabpα-FL = target: T1, His-Gabpα-FL (UniProt Q00422); assay: co-IP; HEK293T cotransfected with His-Gabpα (or C-terminal truncation mutants) and the indicated plasmids, 72 h; lysis buffer 50 mM Tris-HCl pH 7.4, 150 mM NaCl, 1% Triton X-100, 1 mM EDTA; IP with anti-His on protein A/G magnetic beads, overnight at 4 °C; immunoblot
T1 sequence: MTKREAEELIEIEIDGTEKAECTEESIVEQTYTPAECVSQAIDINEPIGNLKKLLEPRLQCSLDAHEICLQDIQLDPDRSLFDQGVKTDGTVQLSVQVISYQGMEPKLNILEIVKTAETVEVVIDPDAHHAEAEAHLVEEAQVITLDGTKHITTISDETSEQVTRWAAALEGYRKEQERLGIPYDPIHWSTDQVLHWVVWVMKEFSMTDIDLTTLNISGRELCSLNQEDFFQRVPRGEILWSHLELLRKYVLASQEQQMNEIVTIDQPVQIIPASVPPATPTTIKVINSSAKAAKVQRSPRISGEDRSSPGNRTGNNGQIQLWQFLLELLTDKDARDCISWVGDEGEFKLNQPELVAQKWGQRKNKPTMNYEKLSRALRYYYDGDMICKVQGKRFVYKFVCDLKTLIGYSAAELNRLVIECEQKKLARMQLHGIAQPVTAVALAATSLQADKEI

GST-Gabpα fusion protein = target: T2, GST-Gabpα fusion protein (UniProt Q00422); assay: pull-down; GST-Gabpα (1 µg) on glutathione magnetic agarose beads, 4 °C 2 h, then His-Pparγ (1 µg) at 4 °C overnight; four washes; immunoblot; both purified
T2 sequence: T1 sequence

[1] = target: T3, Flag-Gabpα (lentivirus, iBAT-SVF cells) (UniProt Q00422); assay: co-IP; differentiated iBAT-SVF cells with Flag-Gabpα lentivirus; IP with anti-Flag or control IgG on protein A/G magnetic beads; immunoblot
T3 sequence: T1 sequence

His-Gabpα-FL, Q00422 = target: T4, His-Gabpα-FL, Q00422; assay: co-IP; HEK293T cotransfected with His-Gabpα (or C-terminal truncation mutants) and the indicated plasmids, 72 h; lysis buffer 50 mM Tris-HCl pH 7.4, 150 mM NaCl, 1% Triton X-100, 1 mM EDTA; IP with anti-His on protein A/G magnetic beads, overnight at 4 °C; immunoblot; conditions: remark: other sources report otherwise
T4 chain: T1 sequence

Molecule: His-Pparγ protein (from UniProt P37238 1-505)
binding (GST-Gabpα fusion protein): binds

Molecule: Myc-Pparγ (from UniProt P37238 1-505)
binding (His-Gabpα-FL): binds

Molecule: Pparγ (differentiated iBAT-SVF cells) (from UniProt P37238 1-505)
binding [1]: binds

The next lines start with the values.

binding (His-Gabpα-FL): no binding
Molecule: Flag-Prdm16 (from UniProt A2A935 1-1275)

binding (His-Gabpα-FL, Q00422): no binding
B1: Flag-Pgc1α, O70343 1-797 (protein)
chain: MAWDMCSQDSVWSDIECAALVGEDQPLCPDLPELDLSELDVNDLDTDSFLGGLKWCSDQSEIISNQYNNEPANIFEKIDEENEANLLAVLTETLDSLPVDEDGLPSFDALTDGAVTTDNEASPSSMPDGTPPPQEAEEPSLLKKLLLAPANTQLSYNECSGLSTQNHAANHTHRIRTNPAIVKTENSWSNKAKSICQQQKPQRRPCSELLKYLTTNDDPPHTKPTENRNSSRDKCASKKKSHTQPQSQHAQAKPTTLSLPLTPESPNDPKGSPFENKTIERTLSVELSGTAGLTPPTTPPHKANQDNPFKASPKLKPSCKTVVPPPTKRARYSECSGTQGSHSTKKGPEQSELYAQLSKSSGLSRGHEERKTKRPSLRLFGDHDYCQSLNSKTDILINISQELQDSRQLDFKDASCDWQGHICSSTDSGQCYLRETLEASKQVSPCSTRKQLQDQEIRAELNKHFGHPCQAVFDDKSDKTSELRDGDFSNEQFSKLPVFINSGLAMDGLFDDSEDESDKLSYPWDGTQPYSLFDVSPSCSSFNSPCRDSVSPPKSLFSQRPQRMRSRSRSFSRHRSCSRSPYSRSRSRSPGSRSSSRSCYYYESSHYRHRTHRNSPLYVRSRSRSPYSRRPRYDSYEAYEHERLKRDEYRKEHEKRESERAKQRERQKQKAIEERRVIYVGKIRPDTTRTELRDRFEVFGEIEECTVNLRDDGDSYGFITYRYTCDAFAALENGYTLRRSNETDFELYFCGRKQFFKSNYADLDTNSDDFDPASTKSKYDSLDFDSLLKEAQRSLRR
